Measurements reported in PubChem BioAssay AID1224830 (NIAID, 2016)

- Screen: 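Regulators of TLR4 signalling towards TNF-alpha in macrophage-like cells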 (primary screen)
- Cells: human THP-1 monocytic leukaemia cells, TNF dual-luciferase reporter clone, PMA-differentiated to macrophage-like cells
- Reagents: siRNA pool against human genes, 50 nM
- Duration: LPS for 4 h, given about 3 days after siRNA transfection
- Conditions: bacterial LPS (TLR4 ligand), 10 ng/ml
- Detection: 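Ratio of firefly to renilla light, scaled to the plate median and expressed as a robust z-score per replicate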
- Reading the numbers: TNF reporter robust z-score: higher = stronger TNF reporter response to LPS
- Call rule: 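Each well counts as active if its z-score is over 2.8 or under -1.5; controls are left without a call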
This is an unselected part of about 18,000 reagents. About 2,900 of them (16%) count as active. 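Calls are made per well; low scores hint the gene aids the LPS response, high scores that it dampens it.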 Reagents against one gene are numbered here. Repeated entries: four replicate wells of each siRNA pool.

gene knocked down | reagent | TNF reporter robust z-score | call
ST6GALNAC6 | 1 | -0.56 | inactive
ST6GALNAC6 | 1 | -0.25 | inactive
ST6GALNAC6 | 1 | 0.19 | inactive
ST6GALNAC6 | 1 | -0.06 | inactive
INPP5D | 1 | 0.01 | inactive
INPP5D | 1 | -0.45 | inactive
INPP5D | 1 | 0.06 | inactive
INPP5D | 1 | -0.09 | inactive
PSEN2 | 1 | 0.11 | inactive
PSEN2 | 1 | -0.65 | inactive
PSEN2 | 1 | 0.28 | inactive
PSEN2 | 1 | -0.89 | inactive
DACH1 | 1 | -0.38 | inactive
DACH1 | 1 | -0.64 | inactive
DACH1 | 1 | -1.68 | active
DACH1 | 1 | -0.57 | inactive
SSX6P | 1 | -0.69 | inactive
SSX6P | 1 | 0.38 | inactive
SSX6P | 1 | -0.81 | inactive
SSX6P | 1 | -0.34 | inactive
INTS6 | 1 | 4.77 | active
INTS6 | 1 | 2.73 | inactive
INTS6 | 1 | 2.58 | inactive
INTS6 | 1 | 4.62 | active
BRCA2 | 1 | -0.86 | inactive
BRCA2 | 1 | -1.03 | inactive
BRCA2 | 1 | -1.22 | inactive
BRCA2 | 1 | -1.02 | inactive
SEMA4D | 1 | 2.99 | active
SEMA4D | 1 | 2.54 | inactive
SEMA4D | 1 | 0.37 | inactive
SEMA4D | 1 | -0.7 | inactive
SEMA4D | 2 | 0.76 | inactive
SEMA4D | 2 | 0.78 | inactive
SEMA4D | 2 | -0.59 | inactive
SEMA4D | 2 | 0.65 | inactive
CDH24 | 1 | -0.09 | inactive
CDH24 | 1 | -0.44 | inactive
CDH24 | 1 | -0.69 | inactive
CDH24 | 1 | 0.08 | inactive
FBXL7 | 1 | 0.2 | inactive
FBXL7 | 1 | -1.25 | inactive
FBXL7 | 1 | -1.14 | inactive
FBXL7 | 1 | 0.26 | inactive
CRTC2 | 1 | -0.65 | inactive
CRTC2 | 1 | 0.76 | inactive
CRTC2 | 1 | 0.93 | inactive
PZP | 1 | 1.15 | inactive
PZP | 1 | 1.81 | inactive
PZP | 1 | 2.32 | inactive
PZP | 1 | 1.96 | inactive
NDRG3 | 1 | 0.36 | inactive
NDRG3 | 1 | 1.23 | inactive
NDRG3 | 1 | 1.46 | inactive
NDRG3 | 1 | 1.84 | inactive
KBTBD3 | 1 | 0.06 | inactive
KBTBD3 | 1 | 0.61 | inactive
KBTBD3 | 1 | 0.99 | inactive
KBTBD3 | 1 | 0.33 | inactive
IMPDH1 | 1 | 1.51 | inactive
IMPDH1 | 1 | 0.1 | inactive
IMPDH1 | 1 | 0.6 | inactive
IMPDH1 | 1 | -0.25 | inactive
OR6V1 | 1 | 1.16 | inactive
OR6V1 | 1 | -0.44 | inactive
OR6V1 | 1 | 0.17 | inactive
OR6V1 | 1 | 0.49 | inactive
PCDHA8 | 1 | -0.8 | inactive
PCDHA8 | 1 | -0.64 | inactive
PCDHA8 | 1 | -0.44 | inactive
PCDHA8 | 1 | -0.35 | inactive
MS4A1 | 1 | -0.28 | inactive
MS4A1 | 1 | -0.2 | inactive
MS4A1 | 1 | 0.01 | inactive
MS4A1 | 1 | 0.33 | inactive
TNP2 | 1 | 0.08 | inactive
TNP2 | 1 | 1.35 | inactive
TNP2 | 1 | 0.56 | inactive
TNP2 | 1 | 1.69 | inactive
SPINK2 | 1 | -0.03 | inactive
SPINK2 | 1 | -0.71 | inactive
SPINK2 | 1 | -0.3 | inactive
SPINK2 | 1 | 0.65 | inactive
GDAP1L1 | 1 | 1.14 | inactive
GDAP1L1 | 1 | 1.51 | inactive
GDAP1L1 | 1 | 1.48 | inactive
GDAP1L1 | 1 | 1.79 | inactive
TRIL | 1 | -0.84 | inactive
TRIL | 1 | 1.24 | inactive
TRIL | 1 | 1.29 | inactive
TRIL | 1 | 0.27 | inactive
APOA5 | 1 | -0.1 | inactive
APOA5 | 1 | 2.91 | active
APOA5 | 1 | 2.75 | inactive
APOA5 | 1 | 1.66 | inactive
ST3GAL2 | 1 | -1.78 | active
ST3GAL2 | 1 | -0.59 | inactive
ST3GAL2 | 1 | -1.18 | inactive
ST3GAL2 | 1 | -0.47 | inactive
PCDH9 | 1 | 0.17 | inactive
PCDH9 | 1 | 0.45 | inactive
PCDH9 | 1 | 0.48 | inactive
PCDH9 | 1 | 1.34 | inactive
ALKBH2 | 1 | 0.27 | inactive
ALKBH2 | 1 | 0.49 | inactive
ALKBH2 | 1 | 1.17 | inactive
ALKBH2 | 1 | 0.2 | inactive
NXF1 | 1 | -1.9 | active
NXF1 | 1 | -1.66 | active
NXF1 | 1 | -1.88 | active
NXF1 | 1 | -1.58 | active

Ordered by “TNF reporter robust z-score” (lowest first): some entries from above.
gene knocked down | reagent | TNF reporter robust z-score | call
PCDHA8 | 1 | -0.44 | inactive
PCDHA8 | 1 | -0.35 | inactive
MS4A1 | 1 | -0.28 | inactive
MS4A1 | 1 | -0.2 | inactive
MS4A1 | 1 | 0.01 | inactive
MS4A1 | 1 | 0.33 | inactive
